Results on three substances are retold here after US5859191 (dated 1999).

This data set can be described thus: general procedure: Fmoc solid-phase peptide synthesis; Rink Amide MBHA resin (0.55 mmol/g substitution); HBTU in 0.4M NMM/DMF; double coupling with HATU after the N-methylated residue. As to conditions: whole synthesis; for crude HPLC purity / final HPLC purity: 215 nm; for crude HPLC purity / final HPLC purity / isolated yield: scale of the general procedure 0.1 mmol; for isolated yield: on resin substitution; for crude mass: scale 0.1 mmol.

Regarding S(N--Me)FLLRN, the “crude HPLC purity” value came out at 63.6%, the “final HPLC purity” value stood at 91%, the isolated yield is given as 32.7% and the crude mass was 79.5 mg.

For SFLLR(N--Me)N, the “crude HPLC purity” value is reported as 89.1%, the “final HPLC purity” value is over 99%, the isolated yield is recorded as 48.0% and the crude mass came out at 84 mg.

For (N--Me)SFLLRN, the “crude HPLC purity” value turned out to be 85.5%, the isolated yield is 66.5% of theory and the crude mass is 102.4 mg.
